Values of other authors, collected in article PMC9289666, “Highly Parallelized, Multicolor Optogenetic Recordings of Cellular Activity for Therapeutic Discovery Applications in Ion Channels and Disease-Associated Excitable Cells” (Frontiers in Molecular Neuroscience, 2022).

System: Nav1.5
Details: cited from earlier work

For Nc1nc2ccc(OC(F)(F)F)cc2s1 [Riluzole], the IC50 is listed as 17.6 µM.
